Measurements as given in paper PMC4741959.
No constants are given. Whether binding was seen depends on the method and setting. Binding seen in cells or lysates may run through a third protein. Some results given as binding are weak or reduced against the parent protein; the word gives no strength.

Amino acid sequences for entries named in this document (tags omitted).
UniProt P63279: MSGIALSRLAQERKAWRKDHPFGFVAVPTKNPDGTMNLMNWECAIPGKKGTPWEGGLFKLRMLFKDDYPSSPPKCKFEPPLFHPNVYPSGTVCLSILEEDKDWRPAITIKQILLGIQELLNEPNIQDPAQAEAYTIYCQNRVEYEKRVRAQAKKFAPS

Biological target: B-cell lymphoma 2 (Bcl-2) (human (endogenous in HepG2 and RKO)) (UniProt P10415)
Experiment: co-IP; total protein extracts of HepG2 and RKO cells transfected with scrambled siRNA or siUbc9 (20 nM, 48 hours); immunoprecipitation with specific antibodies, Western blotting; silencing of Ubc9 lowered the interaction

binding: binds
Substance: Ubiquitin-conjugating enzyme 9 (Ubc9) (from UniProt P63279 1-158)
